{
  "source": "patent EP0019589A1",
  "about": "“Tripeptide derivatives and their use in a process for determining enzymes” (Pentapharm A.G., priority 1979, dated 1980)",
  "key": {"[1]": {"molecular_target": "T1, Urinkallikrein (Homo sapiens, UniProt P06870)", "T1 construct": "1 ml Urin und 1 ml TRIS-Imidazol-Puffer mit pH 7,9; from tissue; host or cells: human urine", "assay": "Cleavage of chromogenic substrate by urinary kallikrein in human urine", "assay_type": "biochemical", "conditions": "statement in words", "experimental": "1. Bestimmung von Urinkallikrein.\n1 ml Urin und 1 ml TRIS-Imidazol-Puffer mit pH 7,9 und Ionenstärke 1,0 werden 5 Min. bei 37°C inkubiert undcänn zentrifugiert, um Sedimente zu entfernen.\nIn einer-Plastikküvette werden 1,4 ml dest. H20 von 37°C und 0,4 ml des Zentrifugats gut gemischt. Zu dieser Mischung gibt man 0,2 ml einer 2 x 10^-3 molaren wässrigen Substratlösung und durchmischt die Komponenten schnell. Dieses Gemisch wird genau 15 Min. bei 37°C inkubiert. Dann wird dem Reaktionsgemisch 0,2 ml Eisessig zugemischt, um die Enzymreaktion zu unterbrechen. Zur Farbmessung verwendet man eine Vergleichsprobe (Blindprobe), die aus den gleichen Komponenten zusammengesetzt ist, wobei jedoch der Eisessig vor Zugabe des Substrates zugesetzt wird, um die Enzymreaktion zu verhindern. Dann wird bei 405 nm photometrisch oder spektrophotometrisch die Menge der gebildeten farbigen Verbindung RNH 2 aus der Differenz zwischen der Blindprobe und der zu bestimmenden Probe ermittelt. Aus dem ermittelten Wert wird die Urinkallikreinaktivität im Urin nach der folgenden Formel berechnet: [formula] • Δ OD = Zunahme der optischen Dichte bei 405 nm während 15 Min. • V = Totalvolumen des Bestimmungsansatzes = 2,2 ml • 1000 = Umrechnungsfaktor zur Umwandlung von U in mU • F = Verdünnungsfaktor des Urins (2) • v = Volumen der Probe = 0,4 ml • ε = Extinktionskoeffizient dividiert durch 1000 = 10,4\nBei der oben beschriebenen Bestimmungsmethode misst man somit die Summe der Aktivitäten von Urinkallikrein und Urokinase. Um die genaue Urinkallikreinaktivität zu erhalten, muss man die Urokinaseaktivität abziehen, welche dadurch bestimmt werden kann, dass man in einem Vergleichsversuch durch Zugabe von 0,075 Einheiten Trypsininhibitor (Trypsininhibitor aus Rinderlunge) pro ml Puffer die Urinkallikreinaktivität vollständig hemmt und nur die Urokinaseaktivität misst.\nBei der Messung des durch die enzymatische Hydrolyse des Substrates gebildeten Spaltproduktes RrNH2 geht man von der Voraussetzung aus, dass das Spaltprodukt ein UV-Spektrum besitzt, das von demjenigen des Substrates verschieden und in Richtung höherer Wellenlängen verschoben ist. Die Absorption des Substrates bei 405 nm ist praktisch Null. p-Nitroanilin als Spaltprodukt weist ein Absorptionsmaximum bei 380 nm und einen molaren Extinktionskoeffizienten von 13'200 auf. Bei 405 nm ist der Extinktionskoeffizient nur wenig niedriger, d.h. […] Der Grad der enzymatischen Hydrolyse des Substrates, welcher der Menge des abgespaltenen p-Nitroanilins proportional ist, lässt sich durch spektrophotometrische Messung bei 405 nm bestimmen. Auch bei Anwesenheit eines Ueberschusses an Substrat wird die Messung bei 405 nm nicht gestört. […]"}, "[2]": {"molecular_target": "T2, Humanthrombin (Homo sapiens, UniProt P00734)", "T2 construct": "Humanplasmin und hu-manem NIH-Thrombin", "assay": "Cleavage of chromogenic substrate by human NIH thrombin", "assay_type": "biochemical", "conditions": "statement in words", "text": "Bei der Messung des durch die enzymatische Hydrolyse des Substrates gebildeten Spaltproduktes RrNH2 geht man von der Voraussetzung aus, dass das Spaltprodukt ein UV-Spektrum besitzt, das von demjenigen des Substrates verschieden und in Richtung höherer Wellenlängen verschoben ist. Die Absorption des Substrates bei 405 nm ist praktisch Null. p-Nitroanilin als Spaltprodukt weist ein Absorptionsmaximum bei 380 nm und einen molaren Extinktionskoeffizienten von 13'200 auf. Bei 405 nm ist der Extinktionskoeffizient nur wenig niedriger, d.h. […] Der Grad der enzymatischen Hydrolyse des Substrates, welcher der Menge des abgespaltenen p-Nitroanilins proportional ist, lässt sich durch spektrophotometrische Messung bei 405 nm bestimmen. Auch bei Anwesenheit eines Ueberschusses an Substrat wird die Messung bei 405 nm nicht gestört.\nBei den Substraten, die als chromogene Gruppe eine 2-Naphthylamino-, 4-Methoxy-2-naphthylamino-, 4-Methyl-cumaryl-(7)-amino- oder 1,3-Di(methoxycarbonyl)-phenyl-(5)-amino-Gruppe enthalten, wird die Menge des Spaltproduktes R-NH2 durch Fluoreszenzspektrophotometrie gemessen. In einem aus Enzym, Puffer und Substrat bestehenden Testsystem misst man kontinuierlich das energieärmere emittierte Licht bei 400-470 nm, nachdem man das gebildete fluoreszierende Spaltprodukt mit energiereicherem Licht erregt hat. […]"}},
  "note": "Some of these results come from one statement about several compounds together. Non-standard residues stand in square brackets, D forms with d. Residues, ends and D or L forms follow the SMILES beside them. *: point of attachment. Cha = N[C@@H](CC1CCCCC1)C(=O)O; AMC = Cc1cc(=O)oc2cc(N*)ccc12",
  "data": [
    {"molecule": "COc1cc(NC(=O)[C@H](CCCNC(=N)N)NC(=O)[C@H](CC2CCCCC2)NC(=O)[C@H](N)C(C)C)cc2ccccc12", "note": "[Beispiel 9, 2HBr.H-D-Val-CHA-Arg-4-MeO-2-NA]", "values": [
      {"measurement": "Eignung als Substrate zur Bestimmung von Urinkallikrein", "setting": "[1]", "result": "eignen sich besonders als Substrate"}
    ]},
    {"molecule": "Cc1cc(=O)oc2cc(NC(=O)[C@H](CCCNC(=N)N)NC(=O)[C@H](CC3CCCCC3)NC(=O)[C@H](N)C(C)C)ccc12", "note": "[Beispiel 3, 2HBr.H-D-Val-CHA-Arg-MCA] (H-[dV]-[Cha]-Arg-{AMC})", "values": [
      {"measurement": "Eignung als Substrate zur Bestimmung von Urinkallikrein", "setting": "[1]", "result": "eignen sich besonders als Substrate"}
    ]},
    {"molecule": "2HBr.H-D-CHT-Pro-Arg-pNA [Beispiel 23]", "values": [
      {"measurement": "Eignung als Substrate zur Bestimmung von Urinkallikrein", "setting": "[1]", "result": "eignen sich besonders als Substrate"},
      {"measurement": "Empfindlichkeit als Substrate für die Bestimmung von Thrombin", "setting": "[2]", "result": "sehr empfindliche Substrate"}
    ]},
    {"molecule": "COC(=O)c1cc(NC(=O)[C@H](CCCNC(=N)N)NC(=O)[C@H](CC2CCCCC2)NC(=O)[C@H](N)C(C)C)cc(C(=O)OC)c1", "note": "[Beispiel 5, 2HBr.H-D-Val-CHA-Arg-DPA]", "values": [
      {"measurement": "Eignung als Substrate zur Bestimmung von Urinkallikrein", "setting": "[1]", "result": "eignen sich besonders als Substrate"}
    ]}
  ]
}
